Results are given in words; binding and its absence hold for the method and conditions named. In cells and extracts the contact can be indirect. Some entries that bind do so weakly or less than the wild type.
Assays:
[1] = biological target: exportin1 (chromosome region maintenance 1, CRM1) (human (endogenous in U2OS)) (UniProt O14980); assay: co-IP; total lysates of untransfected U2OS cells immunoprecipitated with anti-exportin1 antibody or control IgG, blotted for endogenous FIH; pNAS buffer, 16 h at 4°C
[2] = biological target: importin β1 (human (endogenous in U2OS)) (UniProt Q14974); assay: co-IP; total lysates of U2OS cells transfected with control siRNA and treated with DMSO or DMOG (1 mM) for 3 h; immunoprecipitated with anti-importin β1 antibody or control IgG, blotted for FIH and HIF1α; pNAS buffer, 16 h at 4°C

Protein sequences, listed by entry. Tags and fused reporters are not part of them.
UniProt O14980: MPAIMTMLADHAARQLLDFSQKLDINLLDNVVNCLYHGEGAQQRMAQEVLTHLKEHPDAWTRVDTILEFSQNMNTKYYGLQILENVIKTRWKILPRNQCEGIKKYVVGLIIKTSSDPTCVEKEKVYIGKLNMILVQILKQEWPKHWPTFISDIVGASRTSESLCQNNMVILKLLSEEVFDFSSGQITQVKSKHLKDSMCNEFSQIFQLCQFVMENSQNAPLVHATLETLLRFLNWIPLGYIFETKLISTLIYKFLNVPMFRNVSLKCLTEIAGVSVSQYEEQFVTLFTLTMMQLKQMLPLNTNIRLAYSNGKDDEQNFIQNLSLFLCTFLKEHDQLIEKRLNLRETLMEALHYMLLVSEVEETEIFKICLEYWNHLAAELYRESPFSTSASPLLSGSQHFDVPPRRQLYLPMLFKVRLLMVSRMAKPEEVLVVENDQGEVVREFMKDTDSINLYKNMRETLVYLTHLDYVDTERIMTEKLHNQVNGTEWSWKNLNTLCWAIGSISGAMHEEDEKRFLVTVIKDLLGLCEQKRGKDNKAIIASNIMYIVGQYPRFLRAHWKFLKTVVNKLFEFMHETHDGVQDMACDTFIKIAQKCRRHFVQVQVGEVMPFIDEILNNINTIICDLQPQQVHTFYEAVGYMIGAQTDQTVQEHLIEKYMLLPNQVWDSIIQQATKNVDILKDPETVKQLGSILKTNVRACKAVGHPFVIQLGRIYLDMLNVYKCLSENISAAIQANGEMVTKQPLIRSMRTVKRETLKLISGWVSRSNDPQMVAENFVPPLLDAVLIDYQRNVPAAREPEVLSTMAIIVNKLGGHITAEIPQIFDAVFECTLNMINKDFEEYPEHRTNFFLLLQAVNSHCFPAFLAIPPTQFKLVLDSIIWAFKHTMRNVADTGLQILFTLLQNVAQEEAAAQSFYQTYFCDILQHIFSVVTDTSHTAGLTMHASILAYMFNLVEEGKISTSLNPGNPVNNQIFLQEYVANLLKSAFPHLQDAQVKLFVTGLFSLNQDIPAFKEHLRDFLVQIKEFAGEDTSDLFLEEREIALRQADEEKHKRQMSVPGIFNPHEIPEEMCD
UniProt Q14974: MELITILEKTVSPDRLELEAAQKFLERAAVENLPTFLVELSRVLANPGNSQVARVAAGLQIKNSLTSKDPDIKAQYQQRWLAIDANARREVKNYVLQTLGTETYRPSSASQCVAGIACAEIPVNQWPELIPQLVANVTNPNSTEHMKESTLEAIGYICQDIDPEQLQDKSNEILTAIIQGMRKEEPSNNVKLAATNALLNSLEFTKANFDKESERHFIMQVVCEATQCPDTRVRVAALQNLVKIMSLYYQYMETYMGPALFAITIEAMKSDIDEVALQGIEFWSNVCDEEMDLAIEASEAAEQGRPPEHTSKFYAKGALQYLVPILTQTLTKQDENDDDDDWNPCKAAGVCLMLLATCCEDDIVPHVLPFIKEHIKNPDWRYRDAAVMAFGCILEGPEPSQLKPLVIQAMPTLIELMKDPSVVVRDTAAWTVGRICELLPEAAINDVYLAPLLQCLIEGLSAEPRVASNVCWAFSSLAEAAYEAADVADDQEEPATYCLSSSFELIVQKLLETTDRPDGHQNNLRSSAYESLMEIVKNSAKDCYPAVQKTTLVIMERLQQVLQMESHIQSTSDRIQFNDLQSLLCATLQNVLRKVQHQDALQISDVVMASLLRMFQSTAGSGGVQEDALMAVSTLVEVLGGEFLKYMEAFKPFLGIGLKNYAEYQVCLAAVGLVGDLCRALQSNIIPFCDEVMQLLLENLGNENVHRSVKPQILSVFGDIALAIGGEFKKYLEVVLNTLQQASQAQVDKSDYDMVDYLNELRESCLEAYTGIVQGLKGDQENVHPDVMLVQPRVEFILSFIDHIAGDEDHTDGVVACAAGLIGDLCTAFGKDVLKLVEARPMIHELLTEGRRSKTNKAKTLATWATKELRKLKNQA
UniProt Q9NWT6: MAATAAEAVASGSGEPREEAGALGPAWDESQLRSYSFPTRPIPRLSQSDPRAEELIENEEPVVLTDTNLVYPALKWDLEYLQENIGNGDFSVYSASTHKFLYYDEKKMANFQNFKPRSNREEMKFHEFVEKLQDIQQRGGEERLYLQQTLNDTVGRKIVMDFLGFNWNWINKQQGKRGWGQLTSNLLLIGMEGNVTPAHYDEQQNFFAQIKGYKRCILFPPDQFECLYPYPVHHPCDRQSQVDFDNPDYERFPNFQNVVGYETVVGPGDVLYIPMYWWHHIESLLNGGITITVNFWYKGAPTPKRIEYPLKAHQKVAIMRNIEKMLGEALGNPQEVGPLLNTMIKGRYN
UniProt Q16665: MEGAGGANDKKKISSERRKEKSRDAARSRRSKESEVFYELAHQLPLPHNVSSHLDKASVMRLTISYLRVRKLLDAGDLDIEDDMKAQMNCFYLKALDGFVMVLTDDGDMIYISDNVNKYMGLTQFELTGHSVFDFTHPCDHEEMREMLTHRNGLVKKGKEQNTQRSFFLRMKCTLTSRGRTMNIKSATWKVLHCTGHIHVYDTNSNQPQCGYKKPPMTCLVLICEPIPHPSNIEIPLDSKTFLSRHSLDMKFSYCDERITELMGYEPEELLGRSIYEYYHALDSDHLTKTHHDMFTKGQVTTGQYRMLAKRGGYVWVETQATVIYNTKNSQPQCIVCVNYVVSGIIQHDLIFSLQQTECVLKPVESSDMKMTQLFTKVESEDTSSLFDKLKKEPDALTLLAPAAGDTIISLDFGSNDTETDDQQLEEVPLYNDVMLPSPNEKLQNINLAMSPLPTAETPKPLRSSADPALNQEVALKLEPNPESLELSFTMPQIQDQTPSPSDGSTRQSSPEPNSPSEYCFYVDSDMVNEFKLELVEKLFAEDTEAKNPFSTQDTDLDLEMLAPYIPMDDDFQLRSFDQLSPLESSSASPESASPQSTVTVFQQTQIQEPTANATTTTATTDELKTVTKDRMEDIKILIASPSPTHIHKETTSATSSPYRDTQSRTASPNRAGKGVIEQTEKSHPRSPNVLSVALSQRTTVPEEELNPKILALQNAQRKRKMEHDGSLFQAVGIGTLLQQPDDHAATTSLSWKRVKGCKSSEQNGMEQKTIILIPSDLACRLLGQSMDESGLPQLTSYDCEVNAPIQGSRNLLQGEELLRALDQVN

Substance	binding [1]	binding [2]
Factor inhibiting HIF (FIH) (from UniProt Q9NWT6 1-349) (enzyme)	binds	
Hypoxia-inducible factor 1 alpha (HIF1α) (from UniProt Q16665 1-826)		binds

— publication PMC6250434
